The other results are listed elsewhere or left out. Further columns of the screen follow, without active or inactive calls. Most of these compounds were active or inconclusive in the main read-out, so they are no random draw. The note in brackets gives the kind of curve behind each potency; many fits are weak.
Assay: qHTS Assay for Lipid Storage Modulators in Drosophila S3 Cells;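 on cell number change: cells counted by Cell Tracker Red CMTPX staining in the red channel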
Settings: BODIPY lipid droplet fluorescence, 18-24 h; for cell number change: measured here: cell count max response, cells fed with added oleic acid
In short: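 Drosophila S3 cells loaded with oleic acid (400 uM, as added) and compounds at several concentrations; lipid droplets imaged by 488-nm laser-scanning cytometry, 500–530 nm intensity and object ratio to cell channel. Percent activity normalized to 20 uM Triacsin C.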

[1] = measured here: lipid fluorescence (Fed channel) AC50, cells fed with added oleic acid
[2] = measured here: cell number channel AC50, cells fed with added oleic acid

With `N=c1c(C(=O)NCC2CCCO2)cc2c(=O)n3ccccc3nc2n1Cc1cccnc1` (stereo not drawn) the cell number change was 23.7% and the AC50 [1] was 4.61 µM [rising, full curve].

In the case of `CCN(CC)CCCNC(=O)c1nn(-c2cccc(OC)c2)c(=O)c2ccccc12`, the cell number change is reported as 5.75% and the AC50 [1] is reported as 13 µM [rising, single point].

`Cc1cc(F)ccc1N1CCC(N2CCN(C)C(CCO)C2)CC1` (stereo not drawn) gave a cell number change of -10.2%.

In the case of `COc1ccc(Cl)cc1NC(=O)C/C(C)=N/NC(=O)c1ccc(O)cc1`, the cell number change is reported as -16.7% and the AC50 [1] is reported as 0.517 µM [falling, single point].

For `Cc1nn(C)cc1CN(C)C(=O)c1nn2c(c1Cl)NC(c1cccs1)CC2C(F)(F)F` (stereo not drawn), the cell number change was 23.5% and the AC50 [1] was 29.1 µM [rising, single point].

In the case of `c1csc(-c2nc3c4ccccc4c4ccccc4c3[nH]2)c1`, the cell number change is reported as -26% and the AC50 [1] is reported as 16.4 µM [falling, partial curve].

In the case of `CC(=O)N1CCN(C(=O)c2oc3ccccc3c2C)CC1`, the cell number change is reported as -9.09% and the AC50 [1] is reported as 29.1 µM [rising, single point].

In the case of `CN(Cc1ccccc1)C(=O)COC(=O)c1ccc2c(c1)OCO2`, the cell number change is reported as -40.6% and the AC50 [1] is reported as 29.1 µM [falling, single point].

`O=C(Cc1c(F)cccc1Cl)NC1=NCCS1` gave a cell number change of -8.94%.

In the case of `CC(OC(=O)CC1CC2CCC1C2)C(=O)Nc1ccc(C(N)=O)cc1` (stereo not drawn), the AC50 [1] is reported as 4.11 µM [rising, single point].

`Cc1nn(C)cc1S(=O)(=O)N1CCN(Cc2cccc(Cl)c2)CC1` showed a cell number change of -1.08%.

With `COc1ccc(CC(=O)OCCc2cc3cc(OC)c(OC)cc3c(=O)o2)cc1` the cell number change was -5.56%, the AC50 [2] was 0.0058 µM [falling, full curve, poor fit] and the AC50 [1] was 0.00461 µM [falling, full curve, poor fit].

For `O=c1cc(O)n(-c2ccccc2F)c(=S)[nH]1`, the cell number change was 37.1%, the AC50 [2] was 16.4 µM [rising, partial curve, poor fit] and the AC50 [1] was 16.4 µM [falling, partial curve].

With `Cn1c(=O)c(=O)n(C)c2cc(S(=O)(=O)N3CCCC3C(=O)NCc3cccs3)ccc21` (stereo not drawn) the cell number change was -5.23%, the AC50 [2] was 0.651 µM [falling, full curve, poor fit] and the AC50 [1] was 3.26 µM [falling, partial curve].

For `O=C(Nc1nccs1)c1cccc(N2C(=O)C3C4C=CC(C4)C3C2=O)c1` (stereo not drawn), the cell number change was 4% and the AC50 [1] was 0.116 µM [rising, full curve, poor fit].

For `C=C(C)Cn1c(=O)c2c(nc3n2CCCN3CCc2ccccc2)n(C)c1=O`, the cell number change was -8.87% and the AC50 [1] was 23.1 µM [falling, single point].

In the case of `COc1cc2c(cc1OC)CN(CC(=O)Nc1ccc3c(c1)OC(F)(F)O3)CC2`, the cell number change is reported as 47.8% and the AC50 [2] is reported as 29.1 µM [rising, single point].

Reference: PubChem BioAssay AID2685 (National Center for Advancing Translational Sciences (NCATS), 2010)
